# From article PMC7819943, “Rice protein-binding microarrays: a tool to detect cis-acting elements near promoter regions in rice”
# Sequences of proteins named here, by UniProt entry; tags and fusion partners are left off.
# UniProt Q0JBA9, entry or part of it: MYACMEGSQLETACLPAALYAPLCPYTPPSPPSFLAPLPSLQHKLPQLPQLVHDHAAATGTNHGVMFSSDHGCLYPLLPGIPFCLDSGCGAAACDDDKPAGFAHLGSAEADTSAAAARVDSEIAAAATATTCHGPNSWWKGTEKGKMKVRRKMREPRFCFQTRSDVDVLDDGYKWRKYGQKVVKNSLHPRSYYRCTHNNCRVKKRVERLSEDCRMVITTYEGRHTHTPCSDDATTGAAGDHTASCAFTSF
# This is one part of the list.
# Target: OsWRKY34 (Oryza sativa, UniProt Q0JBA9 1-250)
# Experiment: protein-binding microarray (RPBM); PBS, 2% BSA, 51.3 ng/ul salmon testes DNA, 50 uM zinc acetate, 200 nM TF, 25 C, 1 h; high values mean tight binding
# Details: protein: recombinant; tags: N-terminal polyhistidine and DsRed monomer fusion (pET32a); label: CyDye5-dUTP incorporated in the synthesized complementary strand; 3' TTTTT single-stranded linker to array surface; dsDNA, one strand shown
# Summary of the method: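 The binding signal is fluorescence intensity per array feature (arbitrary units). Readings came from an Axon 4000B scanner after a washed, 2% BSA-blocked, double-stranded custom Agilent array had been incubated for 1 h at 25 °C with 200 nM protein and 50 µM zinc acetate. The protein was a Ni–NTA-purified transcription factor fused N-terminally to polyhistidine and DsRed, expressed in E. coli BL21-CodonPlus.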
row,Sequence,binding signal
1,ACTAACAGTTAGATTAAATTGATATCTCGTACCTCATATTCGGAGTCACCTAGTGCAG,8130 fluorescence intensity (a.u.)
2,ATTCTTTCTGCGTGTAGGTGTGCTTTCCTCTCTTTTTTTTCGGAGTCACCTAGTGCAG,12300 fluorescence intensity (a.u.)
3,ACCATCCATTTTCCGTTGACTATCAATGTTTCTTGTGAACCGGAGTCACCTAGTGCAG,15100 fluorescence intensity (a.u.)
4,AGCGTGACCATGTCGTCGTCTTCCCCTTGCCGGCCGGCCGCGGAGTCACCTAGTGCAG,9060 fluorescence intensity (a.u.)
5,GCCTACTCCTACTTGTACATACTTGCTTTTTTTTTTTTTCCGGAGTCACCTAGTGCAG,17500 fluorescence intensity (a.u.)
6,ACGTACCATTCTGTCTGAAGTAGAATGTATGTTTGACGTCCGGAGTCACCTAGTGCAG,8850 fluorescence intensity (a.u.)
7,AGATATCCGGTTTTGTAGTTTAGGGTCATGGTTTAGATTTCGGAGTCACCTAGTGCAG,10700 fluorescence intensity (a.u.)
8,TTTTAGTTGGTTAATTTTTGTGTTTGAGTTATTTGCAATGCGGAGTCACCTAGTGCAG,8910 fluorescence intensity (a.u.)
9,TTAAATGAGTGTTGACTTTTCGTATAACGTTTGACCATTTCGGAGTCACCTAGTGCAG,14600 fluorescence intensity (a.u.)
10,AGGGGTTGTAAACTGGGAGTAGAGAGCCTTTTTCCAGCGGCGGAGTCACCTAGTGCAG,8220 fluorescence intensity (a.u.)
11,ATTTTACCGATTTACTATTTATGCAAGCTTACACTGGTGACGGAGTCACCTAGTGCAG,8480 fluorescence intensity (a.u.)
12,CTTGGGGAAGGCGGCGGGTGTCGGGGAGGGCGAGGGTATCCGGAGTCACCTAGTGCAG,18000 fluorescence intensity (a.u.)
13,AAATATCCGAGTCTTCCTTGAACCAGTTCCTTGACTCCACCGGAGTCACCTAGTGCAG,8580 fluorescence intensity (a.u.)
14,CCTCTTTGTTCCTCGTCGGTAATCATCTATCTGGACCTATCGGAGTCACCTAGTGCAG,9330 fluorescence intensity (a.u.)
15,CGCGCCGGGTGGCGTTGGTGTTGGCGCCGGGGAGGGTCAGCGGAGTCACCTAGTGCAG,9140 fluorescence intensity (a.u.)
16,ATCTCTTTCGTTTTGACCACTTTTGGCTTGTTTCAGAGAACGGAGTCACCTAGTGCAG,11600 fluorescence intensity (a.u.)
17,TCAACTGGGAGGCAAATATCTTCATCGTGTTCGTCATTTTCGGAGTCACCTAGTGCAG,8820 fluorescence intensity (a.u.)
18,GTCCTCGTCTCCACGCTACCGTTTCGCAACCACCCGCTTCCGGAGTCACCTAGTGCAG,12700 fluorescence intensity (a.u.)
19,ACCCACCACATCGACGCGACCACACTCCACACAAGCCATGCGGAGTCACCTAGTGCAG,10100 fluorescence intensity (a.u.)
20,ATCGGTCGCCTTTTGGATTGTTGTCCCAGCCCAAACAAACCGGAGTCACCTAGTGCAG,8690 fluorescence intensity (a.u.)
21,ATATATATATATATATATATATATATATATATATATTCTACGGAGTCACCTAGTGCAG,9390 fluorescence intensity (a.u.)

# Copied from the list:
# ATCGGTCGCCTTTTGGATTGTTGTCCCAGCCCAAACAAACCGGAGTCACCTAGTGCAG | binding signal: 8690 fluorescence intensity (a.u.)
# ATTTTACCGATTTACTATTTATGCAAGCTTACACTGGTGACGGAGTCACCTAGTGCAG | binding signal: 8480 fluorescence intensity (a.u.)
# ACGTACCATTCTGTCTGAAGTAGAATGTATGTTTGACGTCCGGAGTCACCTAGTGCAG | binding signal: 8850 fluorescence intensity (a.u.)
# CCTCTTTGTTCCTCGTCGGTAATCATCTATCTGGACCTATCGGAGTCACCTAGTGCAG | binding signal: 9330 fluorescence intensity (a.u.)

# More results follow:

row,Sequence,binding signal
1,GTCCACACTCCGCGCTCCCGTGATCGCGCATCATACTTAACGGAGTCACCTAGTGCAG,10300 fluorescence intensity (a.u.)
2,CCTTGCCTTTTCTGGTCTAGGCGTATCTGTCGTATTGGGCCGGAGTCACCTAGTGCAG,10400 fluorescence intensity (a.u.)
3,CGCATCCGCATGAGCAGCGCGCATCGCCGTGTTCTTCACTCGGAGTCACCTAGTGCAG,8710 fluorescence intensity (a.u.)
4,AAATTAGGCTAAGATCTTGTTTTGTTCTTCTTGTTTAATTCGGAGTCACCTAGTGCAG,11500 fluorescence intensity (a.u.)
5,ACCTTTCATAAGCTTAGTGGTATTCTCAAACCCATAGTATCGGAGTCACCTAGTGCAG,8670 fluorescence intensity (a.u.)
6,GGTGGTTCGTGAAGGGGACGGAGGGGTGGACGGGGCTGGTCGGAGTCACCTAGTGCAG,12400 fluorescence intensity (a.u.)
7,AAATGTAGTTTTGCACTGTTCATGTCCAACGTTTGACCATCGGAGTCACCTAGTGCAG,9750 fluorescence intensity (a.u.)
8,CGTTCTGTCATTTGGGTTTTATGTTTGTTCTCTCTTGTTTCGGAGTCACCTAGTGCAG,12000 fluorescence intensity (a.u.)
9,CCCATCCTCTCTCTCTCTCTCTCTCTCGCTCGCATCGCCTCGGAGTCACCTAGTGCAG,8810 fluorescence intensity (a.u.)
10,CGCCGACTTCACCTACGTGTTCACCAGCTTCCACGGCATGCGGAGTCACCTAGTGCAG,12300 fluorescence intensity (a.u.)
11,GCATACTTTCTATTTGCGCATCTCCCTGTCCTCAAAACAACGGAGTCACCTAGTGCAG,10300 fluorescence intensity (a.u.)
12,TCCGTCCTCGCATTCTCGGCTTCTCGCCACCGGCCCACGCCGGAGTCACCTAGTGCAG,9200 fluorescence intensity (a.u.)
13,GGGGCACATACCTGATTACGAAAAATTGGAGGGCTTTTTCCGGAGTCACCTAGTGCAG,8650 fluorescence intensity (a.u.)
14,TTATATTCATGCTTGTTGATGCATTCTTTTTTGGACAACTCGGAGTCACCTAGTGCAG,9970 fluorescence intensity (a.u.)
15,TCCTCCTCTTCCTCGCCGTTGCCGCCGCCGCCACCATCGCCGGAGTCACCTAGTGCAG,8440 fluorescence intensity (a.u.)
16,TCCCATCATCCCTTCACCCACCCGCACGCGTCTCCTCCGACGGAGTCACCTAGTGCAG,9440 fluorescence intensity (a.u.)
17,CGTCCCATTTTAAATACAGTTATGTTTTTTCGTGCTCAACCGGAGTCACCTAGTGCAG,10400 fluorescence intensity (a.u.)
18,CTATTCCATTCTGCTACTAGTATACTCCTTCAGTAGTGCACGGAGTCACCTAGTGCAG,8090 fluorescence intensity (a.u.)
19,GCCCTCACTACAAGAATCACATATTTCTCACAGCAAGCATCGGAGTCACCTAGTGCAG,8440 fluorescence intensity (a.u.)
20,TTTTCTACTGTTTCCAACCCTTTTCGTCGCTACTCCTACACGGAGTCACCTAGTGCAG,9280 fluorescence intensity (a.u.)
21,TCGGTTCCGTGGTTCGTCTAGGGTTTAGTGGGTTGAGATGCGGAGTCACCTAGTGCAG,10100 fluorescence intensity (a.u.)

row,Sequence,binding signal
1,ACCGAATCCGAATCCCGCGTTTCTTTGTTGCGCGCGCGACCGGAGTCACCTAGTGCAG,10100 fluorescence intensity (a.u.)
2,GCTTTCCTCTTGCTACACTCCTTTTCTCCAAGTCATACACCGGAGTCACCTAGTGCAG,8890 fluorescence intensity (a.u.)
3,GCGCTCACGTACCCGTCCCCGTCGCGGTCGAACACGCGCGCGGAGTCACCTAGTGCAG,8360 fluorescence intensity (a.u.)
4,CGTGACAAAGTCAGTGGCAAATCGTAGACGTGCGACAAAGCGGAGTCACCTAGTGCAG,8790 fluorescence intensity (a.u.)
5,CAGTGTTGTTTTCTTCATCTATTTCCCACCGGCAAATTGCCGGAGTCACCTAGTGCAG,8590 fluorescence intensity (a.u.)
6,GCCGCATGAACCGCCTCGCCTTCACCCGCCACCGCGCGCCCGGAGTCACCTAGTGCAG,10000 fluorescence intensity (a.u.)
7,GGTCATTCCTGTGTTTTTTTTCTGTGTTTTGCAATTATCTCGGAGTCACCTAGTGCAG,14500 fluorescence intensity (a.u.)
8,ACACCTATTAGATATTTTTTAAAATACCTCTACAGTATTGCGGAGTCACCTAGTGCAG,8900 fluorescence intensity (a.u.)
9,ACAACATTTTACTTTTTTTTCATCCTCATGTCCGTAACATCGGAGTCACCTAGTGCAG,8820 fluorescence intensity (a.u.)
10,ATCCATCCAACATGACTCGTTCACCACATTGTGCTTTATTCGGAGTCACCTAGTGCAG,9700 fluorescence intensity (a.u.)
11,ACCCTGTACGTACGCACGCCCATTGTTCGTGACCTCCCCACGGAGTCACCTAGTGCAG,8900 fluorescence intensity (a.u.)
12,GAATCTCAGCCGCGTCATCCACCTCATTGCTCTTATCCGACGGAGTCACCTAGTGCAG,8940 fluorescence intensity (a.u.)
13,ATATGGACTTTATTTTTCTTTTTCTCCGATTAATATGAGACGGAGTCACCTAGTGCAG,9380 fluorescence intensity (a.u.)
14,GTCATCTCATCACCGGCGACCCCGCCGTGACGTGACGTCACGGAGTCACCTAGTGCAG,8430 fluorescence intensity (a.u.)
15,CGGTGTACTTTTTCCCCTTGCGTTTGGTCTATTTTTACTACGGAGTCACCTAGTGCAG,10700 fluorescence intensity (a.u.)
16,CGTCGGCCTCAATCTTCTTCCGCGCGCGCCGCCGCCGGTCCGGAGTCACCTAGTGCAG,8490 fluorescence intensity (a.u.)
17,TCTTTTTATACCCTATAGTAGTCCTAGGCATATACTACCCCGGAGTCACCTAGTGCAG,8060 fluorescence intensity (a.u.)
18,GGTCAACAATATGTCCCTCGGTGGTTTTGATCCTGGTTCTCGGAGTCACCTAGTGCAG,9930 fluorescence intensity (a.u.)
19,AACGGTTTCGCTACCAACAACGGCTCGTGTTCTTCTGAAGCGGAGTCACCTAGTGCAG,8530 fluorescence intensity (a.u.)
20,TGTCCTGTGTCACATATAATGGCGTTTCAGCTGTAATCTACGGAGTCACCTAGTGCAG,9210 fluorescence intensity (a.u.)
21,CAATCATAACCTTAACCTTTCTCAACCTTTATGCTCTTTACGGAGTCACCTAGTGCAG,8300 fluorescence intensity (a.u.)

row,Sequence,binding signal
1,TGACTTTTATATATAGCTTTCGTGTGAACTAATTACTTCACGGAGTCACCTAGTGCAG,9740 fluorescence intensity (a.u.)
2,TTACTGCTAGCTTCATTTATTTTGGACGGGGTTAGTACATCGGAGTCACCTAGTGCAG,13300 fluorescence intensity (a.u.)
3,CACCCGAGCCGCATCGCCCATCCACCCACGCCACATCGCTCGGAGTCACCTAGTGCAG,10000 fluorescence intensity (a.u.)
4,ACCCCGATGACCAGTCTACTGCTCTCCACATACTAGCAGCCGGAGTCACCTAGTGCAG,8110 fluorescence intensity (a.u.)
5,ACCAACCCCATCGCTCCCTCGACCATCGCCGCAATCCCTTCGGAGTCACCTAGTGCAG,11800 fluorescence intensity (a.u.)
6,AACTCACCGCTTATCTACTCTCTCACGCTGTCATCTAAACCGGAGTCACCTAGTGCAG,12900 fluorescence intensity (a.u.)
7,ACTCCTCCGCTCGCTTTGCGCCATCGCCGCCACCGACGCCCGGAGTCACCTAGTGCAG,10200 fluorescence intensity (a.u.)
8,TCTACGTGTCTCTTAGCATTCTTTTTTCCTTATAAATACTCGGAGTCACCTAGTGCAG,8490 fluorescence intensity (a.u.)
9,TCCACTCCACAGTCCACACCACACGACGCCCCAAACCCTCCGGAGTCACCTAGTGCAG,8710 fluorescence intensity (a.u.)
10,GGGGTGGAGTTTGATCTCTTGCAAGACAGATTTGCTACGACGGAGTCACCTAGTGCAG,10800 fluorescence intensity (a.u.)
11,CCGTTCTTCCCTCTCTCTCTCTCTTTCTCTCTACATATGACGGAGTCACCTAGTGCAG,10400 fluorescence intensity (a.u.)
12,ATTCAGCACATTTGTTTGACAGGAGCCGTGTCTCGAATAACGGAGTCACCTAGTGCAG,8730 fluorescence intensity (a.u.)
13,ATGAGCCCATCCGTCACTGCCACGGTTCCATCAACATCTACGGAGTCACCTAGTGCAG,8560 fluorescence intensity (a.u.)
14,CCTCGTCGGCGCCGCCGTGTTGCTGCTGCCCGCGGCGCGCCGGAGTCACCTAGTGCAG,8970 fluorescence intensity (a.u.)
15,CACTTCACACACGCTCCTTCTGTAGTTCATTGGCTTGCTTCGGAGTCACCTAGTGCAG,8480 fluorescence intensity (a.u.)
16,ATGCGTTGTGCAGATGCAGAGGTGTTTGTTGTTGTCGTGGCGGAGTCACCTAGTGCAG,9290 fluorescence intensity (a.u.)
17,CGAGTCGAGCTTTTCTTTCTTTGGTTGGTTGGTTGGTGTTCGGAGTCACCTAGTGCAG,19600 fluorescence intensity (a.u.)
18,GCTTTTAGAAACCGGTATCTTCAAGAAATCCACGTTTGACCGGAGTCACCTAGTGCAG,9400 fluorescence intensity (a.u.)
19,TGGATGCTAGTTTAGTTTTTTTTTATGTTGTCACGTCGAACGGAGTCACCTAGTGCAG,10500 fluorescence intensity (a.u.)
20,TTGGATTGGTTACTATGTTTGCATTTACACTATTTATTATCGGAGTCACCTAGTGCAG,10300 fluorescence intensity (a.u.)
21,AAAATCTCCTACTAGCTCACTTCACAATGGATCAAACAAACGGAGTCACCTAGTGCAG,8230 fluorescence intensity (a.u.)
